The other results are listed elsewhere or left out.
What was measured:
Assay in all cases: log2 fold change, soluble protein after heating vs DMSO (PISA); higher = thermal stabilisation; K562 cells, 10 uM, 30 min; active = over 0.2 and 3.5 SD of the protein, either way, in both replicates (recomputed)
bafetinib = compound: Cc1ccc(NC(=O)c2ccc(CN3CC[C@H](N(C)C)C3)c(C(F)(F)F)c2)cc1Nc1nccc(-c2cncnc2)n1 [bafetinib]
Method in brief: (§1)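 Values are thermal stability changes relative to control samples and are taken from duplicates. They are stated as log2 fold changes. Before quantification by TMTpro 16plex LC-MS/MS with equalised channel sums, K562 cells at 2×10^6 cells/mL were treated with 10 μM compound for 30 min, heated in aliquots for 3 min across 48°C-58°C, pooled, extracted in PBS with 0.5% NP-40 at 4°C, and centrifuged at 21,000xg for 90 min to give the soluble supernatant.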

The chains behind the UniProt entries cited, without tags or fusion partners. Where a name states a change or a piece, a line headed by the entry shows the natural chain unless it says otherwise.
UniProt O94874: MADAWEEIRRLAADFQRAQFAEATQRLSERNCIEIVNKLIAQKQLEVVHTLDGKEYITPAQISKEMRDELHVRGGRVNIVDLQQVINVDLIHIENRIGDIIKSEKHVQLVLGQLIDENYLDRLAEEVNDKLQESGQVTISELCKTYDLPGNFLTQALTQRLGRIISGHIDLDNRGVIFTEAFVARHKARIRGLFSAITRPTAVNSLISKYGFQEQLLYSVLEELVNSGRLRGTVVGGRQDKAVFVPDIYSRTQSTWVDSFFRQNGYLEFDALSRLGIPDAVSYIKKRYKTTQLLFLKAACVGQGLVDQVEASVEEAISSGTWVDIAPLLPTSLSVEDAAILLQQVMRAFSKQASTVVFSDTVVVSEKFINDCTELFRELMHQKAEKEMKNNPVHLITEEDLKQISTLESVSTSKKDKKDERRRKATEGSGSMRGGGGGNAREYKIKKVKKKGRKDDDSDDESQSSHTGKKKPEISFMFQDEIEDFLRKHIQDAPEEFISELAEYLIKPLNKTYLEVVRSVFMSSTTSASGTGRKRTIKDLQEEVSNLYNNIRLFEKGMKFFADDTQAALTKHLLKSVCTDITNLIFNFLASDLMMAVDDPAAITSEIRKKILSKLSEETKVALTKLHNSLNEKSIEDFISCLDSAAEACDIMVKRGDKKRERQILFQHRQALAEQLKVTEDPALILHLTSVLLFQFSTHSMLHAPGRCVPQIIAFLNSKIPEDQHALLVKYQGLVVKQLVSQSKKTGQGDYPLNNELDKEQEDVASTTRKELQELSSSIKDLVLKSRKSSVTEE
UniProt Q9NYU2: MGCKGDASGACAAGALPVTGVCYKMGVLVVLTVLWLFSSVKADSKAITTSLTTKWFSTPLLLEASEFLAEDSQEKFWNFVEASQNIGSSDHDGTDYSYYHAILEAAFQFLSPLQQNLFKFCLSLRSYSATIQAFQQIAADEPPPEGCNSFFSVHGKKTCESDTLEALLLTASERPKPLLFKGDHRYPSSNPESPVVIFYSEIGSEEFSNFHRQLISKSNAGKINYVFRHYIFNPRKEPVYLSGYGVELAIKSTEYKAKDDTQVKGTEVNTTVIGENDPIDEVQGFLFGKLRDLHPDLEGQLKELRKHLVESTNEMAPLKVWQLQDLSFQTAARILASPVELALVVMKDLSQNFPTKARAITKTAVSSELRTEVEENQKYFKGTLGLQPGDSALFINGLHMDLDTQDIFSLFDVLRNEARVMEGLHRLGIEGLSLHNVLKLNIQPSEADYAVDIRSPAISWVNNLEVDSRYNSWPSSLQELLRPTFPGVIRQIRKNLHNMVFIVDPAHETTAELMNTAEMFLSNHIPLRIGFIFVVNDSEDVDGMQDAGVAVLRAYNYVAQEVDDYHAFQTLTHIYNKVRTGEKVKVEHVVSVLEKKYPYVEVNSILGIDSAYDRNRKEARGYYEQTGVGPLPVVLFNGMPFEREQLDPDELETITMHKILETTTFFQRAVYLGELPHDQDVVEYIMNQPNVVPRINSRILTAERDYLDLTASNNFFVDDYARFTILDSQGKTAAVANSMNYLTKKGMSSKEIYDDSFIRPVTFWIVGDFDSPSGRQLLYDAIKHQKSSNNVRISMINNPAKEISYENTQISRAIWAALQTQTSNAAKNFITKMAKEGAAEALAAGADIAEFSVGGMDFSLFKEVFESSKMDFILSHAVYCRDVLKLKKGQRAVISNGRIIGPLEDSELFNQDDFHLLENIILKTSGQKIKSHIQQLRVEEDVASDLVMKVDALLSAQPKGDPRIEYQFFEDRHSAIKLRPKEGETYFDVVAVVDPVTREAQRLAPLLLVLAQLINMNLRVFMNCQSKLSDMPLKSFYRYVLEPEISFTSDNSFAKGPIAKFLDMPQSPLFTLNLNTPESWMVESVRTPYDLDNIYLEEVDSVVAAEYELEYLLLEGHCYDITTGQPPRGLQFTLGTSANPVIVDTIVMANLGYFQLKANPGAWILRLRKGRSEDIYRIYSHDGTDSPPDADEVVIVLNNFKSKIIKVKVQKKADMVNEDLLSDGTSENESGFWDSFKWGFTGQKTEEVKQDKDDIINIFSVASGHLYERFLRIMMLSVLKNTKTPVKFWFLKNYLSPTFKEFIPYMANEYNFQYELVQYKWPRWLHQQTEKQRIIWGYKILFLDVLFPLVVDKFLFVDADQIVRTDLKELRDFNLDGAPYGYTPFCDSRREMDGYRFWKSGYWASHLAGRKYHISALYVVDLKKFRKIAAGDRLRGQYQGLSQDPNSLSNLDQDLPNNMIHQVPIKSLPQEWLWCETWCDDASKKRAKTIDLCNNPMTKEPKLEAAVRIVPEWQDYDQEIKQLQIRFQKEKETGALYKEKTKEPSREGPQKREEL
UniProt Q08AM6: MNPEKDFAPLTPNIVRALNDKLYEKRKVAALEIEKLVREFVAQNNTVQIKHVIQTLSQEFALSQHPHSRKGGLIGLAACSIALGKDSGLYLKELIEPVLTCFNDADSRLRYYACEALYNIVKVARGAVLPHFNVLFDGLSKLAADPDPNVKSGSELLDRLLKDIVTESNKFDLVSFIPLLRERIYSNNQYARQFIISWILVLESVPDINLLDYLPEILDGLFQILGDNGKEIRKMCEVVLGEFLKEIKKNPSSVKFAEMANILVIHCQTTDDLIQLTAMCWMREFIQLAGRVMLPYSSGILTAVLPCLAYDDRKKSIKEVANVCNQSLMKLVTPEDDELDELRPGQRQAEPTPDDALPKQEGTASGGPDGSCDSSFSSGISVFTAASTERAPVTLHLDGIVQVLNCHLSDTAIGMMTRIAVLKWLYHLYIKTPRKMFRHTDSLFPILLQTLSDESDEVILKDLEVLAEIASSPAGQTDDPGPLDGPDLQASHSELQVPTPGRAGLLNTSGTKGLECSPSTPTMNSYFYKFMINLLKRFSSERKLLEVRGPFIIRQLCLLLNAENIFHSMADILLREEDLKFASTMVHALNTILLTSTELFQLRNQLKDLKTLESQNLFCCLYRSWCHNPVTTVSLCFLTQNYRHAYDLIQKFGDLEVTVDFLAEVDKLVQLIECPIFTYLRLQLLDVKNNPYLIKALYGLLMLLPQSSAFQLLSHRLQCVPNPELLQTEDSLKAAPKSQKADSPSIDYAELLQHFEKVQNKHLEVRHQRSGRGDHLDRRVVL
UniProt Q70J99: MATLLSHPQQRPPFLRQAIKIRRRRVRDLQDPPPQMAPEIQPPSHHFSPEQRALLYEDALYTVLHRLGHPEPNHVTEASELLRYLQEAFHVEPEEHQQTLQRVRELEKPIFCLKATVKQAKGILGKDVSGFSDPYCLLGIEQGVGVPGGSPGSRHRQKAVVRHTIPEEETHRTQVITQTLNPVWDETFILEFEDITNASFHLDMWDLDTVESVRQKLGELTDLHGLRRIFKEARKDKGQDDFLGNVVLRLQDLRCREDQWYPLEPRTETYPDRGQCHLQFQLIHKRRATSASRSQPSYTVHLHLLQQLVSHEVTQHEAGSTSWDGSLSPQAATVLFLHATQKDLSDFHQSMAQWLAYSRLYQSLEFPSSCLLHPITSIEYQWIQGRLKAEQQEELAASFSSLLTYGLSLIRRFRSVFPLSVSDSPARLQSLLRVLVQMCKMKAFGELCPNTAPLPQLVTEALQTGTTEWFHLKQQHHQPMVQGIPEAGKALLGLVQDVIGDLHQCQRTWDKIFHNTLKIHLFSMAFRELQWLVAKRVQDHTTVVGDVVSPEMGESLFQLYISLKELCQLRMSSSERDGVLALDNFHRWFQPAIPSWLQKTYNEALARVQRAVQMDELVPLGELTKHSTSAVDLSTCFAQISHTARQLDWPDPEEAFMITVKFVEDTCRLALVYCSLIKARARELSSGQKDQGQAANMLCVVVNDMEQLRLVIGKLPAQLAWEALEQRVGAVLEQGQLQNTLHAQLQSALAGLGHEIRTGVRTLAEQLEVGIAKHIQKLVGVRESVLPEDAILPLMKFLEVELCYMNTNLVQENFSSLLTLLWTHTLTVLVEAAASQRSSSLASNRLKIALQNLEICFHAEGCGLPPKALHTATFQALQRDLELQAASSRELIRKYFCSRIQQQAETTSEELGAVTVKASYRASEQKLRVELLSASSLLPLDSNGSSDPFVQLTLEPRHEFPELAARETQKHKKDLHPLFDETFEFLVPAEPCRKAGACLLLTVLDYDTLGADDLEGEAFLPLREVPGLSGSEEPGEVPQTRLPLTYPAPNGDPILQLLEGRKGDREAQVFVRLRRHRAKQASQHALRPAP
UniProt Q15853: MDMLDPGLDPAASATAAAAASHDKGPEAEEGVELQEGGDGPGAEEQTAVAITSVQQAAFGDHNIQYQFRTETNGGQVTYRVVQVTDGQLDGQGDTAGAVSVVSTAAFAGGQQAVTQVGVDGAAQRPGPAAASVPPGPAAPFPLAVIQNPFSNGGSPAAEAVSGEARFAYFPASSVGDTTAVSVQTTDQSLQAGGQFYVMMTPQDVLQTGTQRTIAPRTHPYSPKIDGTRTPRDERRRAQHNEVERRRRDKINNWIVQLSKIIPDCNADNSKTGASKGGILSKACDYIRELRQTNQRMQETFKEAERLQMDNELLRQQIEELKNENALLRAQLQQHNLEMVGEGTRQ
UniProt Q96S82: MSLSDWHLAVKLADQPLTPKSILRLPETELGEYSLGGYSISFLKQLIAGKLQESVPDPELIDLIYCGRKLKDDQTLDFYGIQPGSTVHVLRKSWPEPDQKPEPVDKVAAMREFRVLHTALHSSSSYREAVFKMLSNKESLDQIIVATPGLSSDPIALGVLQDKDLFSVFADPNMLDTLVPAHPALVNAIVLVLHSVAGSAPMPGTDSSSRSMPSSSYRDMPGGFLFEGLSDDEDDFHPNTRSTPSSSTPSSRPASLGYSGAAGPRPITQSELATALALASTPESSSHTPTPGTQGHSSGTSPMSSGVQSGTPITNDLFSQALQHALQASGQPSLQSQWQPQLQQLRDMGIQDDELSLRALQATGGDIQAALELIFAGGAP
UniProt Q9P0L0: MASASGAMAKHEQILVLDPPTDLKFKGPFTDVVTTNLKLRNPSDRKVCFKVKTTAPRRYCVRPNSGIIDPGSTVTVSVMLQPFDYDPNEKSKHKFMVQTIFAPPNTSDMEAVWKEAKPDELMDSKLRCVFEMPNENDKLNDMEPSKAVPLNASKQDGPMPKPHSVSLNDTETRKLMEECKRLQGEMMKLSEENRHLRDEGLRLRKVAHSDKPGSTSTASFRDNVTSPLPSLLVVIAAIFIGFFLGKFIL
UniProt P18206: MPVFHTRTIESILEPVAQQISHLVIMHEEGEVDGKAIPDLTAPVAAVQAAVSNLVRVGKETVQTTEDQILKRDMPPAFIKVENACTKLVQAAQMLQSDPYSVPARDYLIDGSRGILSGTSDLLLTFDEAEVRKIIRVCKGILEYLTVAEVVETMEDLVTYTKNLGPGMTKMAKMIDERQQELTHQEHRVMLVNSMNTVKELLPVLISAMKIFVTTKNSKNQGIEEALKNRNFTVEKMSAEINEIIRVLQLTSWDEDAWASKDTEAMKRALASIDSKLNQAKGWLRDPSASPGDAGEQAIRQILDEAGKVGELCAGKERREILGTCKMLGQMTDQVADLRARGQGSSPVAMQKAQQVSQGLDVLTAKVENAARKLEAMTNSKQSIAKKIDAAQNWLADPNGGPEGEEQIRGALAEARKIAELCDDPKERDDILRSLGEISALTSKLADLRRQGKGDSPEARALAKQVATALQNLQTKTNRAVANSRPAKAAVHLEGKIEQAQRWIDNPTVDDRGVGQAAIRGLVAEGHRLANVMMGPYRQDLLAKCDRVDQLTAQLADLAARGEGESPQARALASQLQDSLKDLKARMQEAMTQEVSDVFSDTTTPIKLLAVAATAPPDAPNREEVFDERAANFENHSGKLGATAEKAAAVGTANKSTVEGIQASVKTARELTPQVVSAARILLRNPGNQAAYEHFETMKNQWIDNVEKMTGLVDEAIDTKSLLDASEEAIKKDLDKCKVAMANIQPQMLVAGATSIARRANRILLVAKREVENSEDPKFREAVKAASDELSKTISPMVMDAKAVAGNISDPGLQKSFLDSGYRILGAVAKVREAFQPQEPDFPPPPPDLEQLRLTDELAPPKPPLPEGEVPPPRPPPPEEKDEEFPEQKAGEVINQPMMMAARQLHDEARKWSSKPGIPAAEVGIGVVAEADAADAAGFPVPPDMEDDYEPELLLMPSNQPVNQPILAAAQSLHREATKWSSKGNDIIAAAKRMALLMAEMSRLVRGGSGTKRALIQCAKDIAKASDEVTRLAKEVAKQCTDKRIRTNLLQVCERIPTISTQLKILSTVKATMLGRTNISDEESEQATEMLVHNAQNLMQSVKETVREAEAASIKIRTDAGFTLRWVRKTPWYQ

[1] = compound: Cc1cccc(CC(=O)N2CCc3c2ccc(-c2cn(C)c4ncnc(N)c24)c3F)n1
Method in brief: as §1

nilotinib = compound: Cc1cn(-c2cc(NC(=O)c3ccc(C)c(Nc4nccc(-c5cccnc5)n4)c3)cc(C(F)(F)F)c2)cn1 [nilotinib]
Method in brief: as §1

[2] = compound: Cc1nc(Nc2n[nH]c3c2CN(C(=O)N[C@H](CN(C)C)c2ccccc2)C3(C)C)c2sccc2n1
Method in brief: as §1

dasatinib = compound: Cc1nc(Nc2ncc(C(=O)Nc3c(C)cccc3Cl)s2)cc(N2CCN(CCO)CC2)n1 [dasatinib]
Method in brief: as §1

[3] = compound: Cc1ncc(-c2ccnc(Nc3ccc(S(C)(=O)=O)cc3)n2)n1C(C)C
Method in brief: as §1

[4] = compound: Cn1cc(-c2ccc3c(c2)CCN3C(=O)Cc2cccc(C(F)(F)F)c2)c2c(N)ncnc21
Method in brief: as §1

[5] = compound: Cn1cc(-c2ccc3nnc(C(F)(F)c4ccc5ncccc5c4)n3n2)cn1
Method in brief: as §1

tipifarnib = compound: Cn1cncc1[C@@](N)(c1ccc(Cl)cc1)c1ccc2c(c1)c(-c1cccc(Cl)c1)cc(=O)n2C [tipifarnib]
Method in brief: as §1

mubritinib = compound: FC(F)(F)c1ccc(/C=C/c2nc(COc3ccc(CCCCn4ccnn4)cc3)co2)cc1 [mubritinib]
Method in brief: as §1

[6] = compound: NC(=O)Nc1cc(-c2cccc(F)c2)sc1C(=O)N[C@H]1CCCNC1
Method in brief: as §1

[7] = compound: NC(=O)c1cnc(N[C@@H]2CCCC[C@@H]2N)nc1Nc1cccc(-n2nccn2)c1
Method in brief: as §1

[8] = compound: NC1(c2ccc(-c3nc4ccn5c(=O)[nH]nc5c4cc3-c3ccccc3)cc2)CCC1
Method in brief: as §1

[9] = compound: NCC(=O)Nc1ccc(-n2nc(C(F)(F)F)cc2-c2ccc3c(ccc4ccccc43)c2)cc1
Method in brief: as §1

entinostat = compound: Nc1ccccc1NC(=O)c1ccc(CNC(=O)OCc2cccnc2)cc1 [entinostat]
Method in brief: as §1

vorinostat = compound: O=C(CCCCCCC(=O)Nc1ccccc1)NO [vorinostat]
Method in brief: as §1

citarinostat = compound: O=C(CCCCCCNC(=O)c1cnc(N(c2ccccc2)c2ccccc2Cl)nc1)NO [citarinostat]
Method in brief: as §1

silmitasertib = compound: O=C(O)c1ccc2c(c1)nc(Nc1cccc(Cl)c1)c1ccncc12 [silmitasertib]
Method in brief: as §1

[10] = compound: O=C1NC(=O)C(c2cnc3ccccn23)=C1c1cn2c3c(cc(F)cc13)CN(C(=O)N1CCCCC1)CC2
Method in brief: as §1

[11] = compound: c1cc(OCCN2CCCCC2)cc(-c2n[nH]c3ccc(-c4nnc[nH]4)cc23)c1
Method in brief: as §1

Measured: log2 fold change

UFSP2 (UniProt Q9NUQ7)
inactive: bafetinib -0.01 | [1] 0.076 | nilotinib -0.032 | [2] -0.022 | dasatinib -0.102 | [3] -0.004 | [4] -0.029 | [5] -0.039 | tipifarnib -0.082 | mubritinib 0.084 | [6] 0.019 | [7] 0.006 | [8] -0.052 | [9] -0.064 | entinostat 0.034 | vorinostat 0.047 | citarinostat 0.021 | silmitasertib -0.031 | [10] -0.009 | [11] -0.022

USP15 (UniProt Q9Y4E8)
inactive: bafetinib -0.01 | [1] 0.047 | nilotinib -0.064 | [2] -0.082 | dasatinib -0.099 | [3] 0.005 | [4] 0.021 | [5] 0.044 | tipifarnib -0.081 | mubritinib 0.023 | [6] -0.017 | [7] -0.078 | [8] -0.185 | [9] -0.066 | entinostat 0.052 | vorinostat 0.044 | citarinostat 0.064 | silmitasertib 0.035 | [10] -0.016 | [11] -0.022

UFL1 (UniProt O94874)
inactive: bafetinib 0.032 | [1] 0.018 | nilotinib -0.119 | [2] -0.009 | dasatinib -0.165 | [3] 0.083 | [4] -0.013 | [5] -0.007 | tipifarnib -0.052 | mubritinib 0.062 | [6] -0.06 | [7] -0.013 | [8] -0.107 | [9] -0.066 | entinostat 0.059 | vorinostat 0.074 | citarinostat 0.063 | silmitasertib 0.029 | [10] -0.013 | [11] -0.048

UBR5 (UniProt O95071)
inactive: bafetinib -0.015 | [1] -0.014 | nilotinib -0.051 | [2] -0.093 | dasatinib 0.013 | [3] 0.021 | [4] -0.166 | [5] -0.015 | tipifarnib 0.082 | mubritinib -0.083 | [6] -0.005 | [7] -0.047 | [8] 0.002 | [9] -0.014 | entinostat 0.036 | vorinostat 0.017 | citarinostat 0.018 | silmitasertib 0.14 | [10] 0.036 | [11] -0.141

UGGT1 (UniProt Q9NYU2)
inactive: bafetinib -0.005 | [1] -0.007 | nilotinib -0.015 | [2] 0.016 | dasatinib -0.007 | [3] -0.036 | [4] -0.017 | [5] -0.001 | tipifarnib -0.026 | mubritinib -0.043 | [6] 0.028 | [7] -0.025 | [8] -0.06 | [9] 0.017 | entinostat -0.001 | vorinostat -0.004 | citarinostat 0.047 | silmitasertib 0.01 | [10] -0.025 | [11] -0.035

Fetched one by one from the list above, 2 records:
UFSP2 (UniProt Q9NUQ7)
inactive: bafetinib -0.01 | [1] 0.076 | nilotinib -0.032 | [2] -0.022 | dasatinib -0.102 | [3] -0.004 | [4] -0.029 | [5] -0.039 | tipifarnib -0.082 | mubritinib 0.084 | [6] 0.019 | [7] 0.006 | [8] -0.052 | [9] -0.064 | entinostat 0.034 | vorinostat 0.047 | citarinostat 0.021 | silmitasertib -0.031 | [10] -0.009 | [11] -0.022

UBR5 (UniProt O95071)
inactive: bafetinib -0.015 | [1] -0.014 | nilotinib -0.051 | [2] -0.093 | dasatinib 0.013 | [3] 0.021 | [4] -0.166 | [5] -0.015 | tipifarnib 0.082 | mubritinib -0.083 | [6] -0.005 | [7] -0.047 | [8] 0.002 | [9] -0.014 | entinostat 0.036 | vorinostat 0.017 | citarinostat 0.018 | silmitasertib 0.14 | [10] 0.036 | [11] -0.141

Following part.

VAC14 (UniProt Q08AM6)
inactive: bafetinib -0.045 | [1] -0.005 | nilotinib -0.02 | [2] 0.041 | dasatinib -0.078 | [3] -0.054 | [4] 0.058 | [5] 0.038 | tipifarnib 0.016 | mubritinib 0.044 | [6] 0.007 | [7] -0.061 | [8] -0.124 | [9] -0.056 | entinostat 0.009 | vorinostat 0.039 | citarinostat 0.003 | silmitasertib 0.007 | [10] 0 | [11] -0.053

UNC13D isoform 3 (UniProt Q70J99)
inactive: bafetinib 0.293 | [1] -0.022 | nilotinib -0.213 | [2] -0.353 | dasatinib -0.071 | [3] 0.244 | [4] -0.141 | [5] -0.145 | tipifarnib 0.011 | mubritinib -0.095 | [6] -0.005 | [7] -0.023 | [8] -0.019 | [9] -0.033 | entinostat 0.063 | vorinostat -0.086 | citarinostat 0.013 | silmitasertib 0.095 | [10] 0.18 | [11] -0.04

USF2 (UniProt Q15853)
inactive: bafetinib 0.026 | [1] 0.043 | nilotinib 0.032 | [2] -0.074 | dasatinib -0.017 | [3] 0.086 | [4] -0.019 | [5] 0.012 | tipifarnib 0.015 | mubritinib -0.061 | [6] 0.201 | [7] -0.009 | [8] 0.059 | [9] -0.02 | entinostat -0.027 | vorinostat -0.134 | citarinostat -0.106 | silmitasertib 0.065 | [10] 0.065 | [11] -0.057

UBR4 isoform 2 (UniProt Q5T4S7)
inactive: bafetinib 0.064 | [1] 0.082 | nilotinib -0.09 | [2] 0.023 | dasatinib -0.045 | [3] 0.016 | [4] -0.106 | [5] -0.029 | tipifarnib -0.069 | mubritinib -0.008 | [6] 0 | [7] -0.041 | [8] -0.127 | [9] -0.003 | entinostat 0.029 | vorinostat 0.072 | citarinostat 0.027 | silmitasertib 0.092 | [10] 0.117 | [11] -0.076

UBL7 (UniProt Q96S82)
inactive: bafetinib -0.037 | [1] -0.077 | nilotinib -0.008 | [2] -0.015 | dasatinib 0 | [3] -0.015 | [4] 0.097 | [5] 0.047 | tipifarnib 0.01 | mubritinib 0.108 | [6] -0.093 | [7] -0.035 | [8] -0.047 | [9] -0.11 | entinostat 0.125 | vorinostat -0.018 | citarinostat 0.057 | silmitasertib 0.027 | [10] -0.092 | [11] 0.012

USP39 (UniProt Q53GS9)
inactive: bafetinib 0.037 | [1] -0.04 | nilotinib 0.001 | [2] -0.075 | dasatinib 0.036 | [3] 0.01 | [4] -0.055 | [5] -0.065 | tipifarnib 0.074 | mubritinib -0.017 | [6] -0.078 | [7] -0.005 | [8] 0.048 | [9] 0.001 | entinostat -0.026 | vorinostat 0.048 | citarinostat -0.006 | silmitasertib 0.036 | [10] 0.034 | [11] -0.085

UBR2 (UniProt Q8IWV8)
inactive: bafetinib 0.021 | [1] 0.072 | nilotinib 0.02 | [2] 0.01 | dasatinib -0.107 | [3] -0.069 | [4] -0.023 | [5] 0.058 | tipifarnib -0.095 | mubritinib 0.011 | [6] -0.007 | [7] 0.038 | [8] 0.039 | [9] 0.007 | entinostat 0.049 | vorinostat 0.137 | citarinostat 0.05 | silmitasertib 0.061 | [10] 0.044 | [11] -0.14

USP10 isoform 2 (UniProt Q14694)
inactive: bafetinib 0.012 | [1] -0.032 | nilotinib -0.016 | [2] -0.033 | dasatinib -0.036 | [3] 0.014 | [4] -0.06 | [5] -0.019 | tipifarnib 0.03 | mubritinib -0.034 | [6] 0 | [7] -0.033 | [8] 0.048 | [9] -0.028 | entinostat 0.019 | vorinostat 0.035 | citarinostat -0.002 | silmitasertib 0.027 | [10] 0.03 | [11] -0.06

VAPA (UniProt Q9P0L0)
inactive: bafetinib 0.061 | [1] -0.176 | nilotinib -0.038 | [2] -0.008 | dasatinib 0.031 | [3] 0.004 | [4] 0.01 | [5] 0.015 | tipifarnib -0.02 | mubritinib 0.004 | [6] 0.003 | [7] -0.029 | [8] -0.001 | [9] -0.054 | entinostat 0.004 | vorinostat -0.101 | citarinostat 0.042 | silmitasertib 0.017 | [10] -0.028 | [11] -0.007

USP48 isoform 8 (UniProt Q86UV5)
inactive: bafetinib 0.005 | [1] -0.089 | nilotinib -0.097 | [2] -0.362 | dasatinib -0.139 | [3] -0.073 | [4] -0.041 | [5] 0.097 | tipifarnib -0.11 | mubritinib -0.021 | [6] -0.077 | [7] 0.002 | [8] -0.235 | [9] -0.125 | entinostat 0.351 | vorinostat 0.178 | citarinostat 0.177 | silmitasertib 0.094 | [10] -0.177 | [11] -0.157

VCL (UniProt P18206)
inactive: bafetinib 0.001 | [1] 0.009 | nilotinib 0.015 | [2] -0.001 | dasatinib 0.057 | [3] 0 | [4] 0.005 | [5] 0.022 | tipifarnib 0.019 | mubritinib 0.018 | [6] 0.045 | [7] 0.013 | [8] 0.012 | [9] 0.057 | entinostat -0.004 | vorinostat -0.008 | citarinostat 0.024 | silmitasertib -0.046 | [10] -0.006 | [11] 0.011

— the supplement of paper PMC10849652
